This test concerns the target monkey 4-1BB on the cell membrane surface of CHO-K1 cells (monkey). The test is described as follows: FACS, CHO-K1-cy4-1BB cells. Background: A flow cytometer gives signals particle by particle.

This note sets out measurements from US20220411523A1.

Results are given in words; binding and its absence hold for the method and conditions named. Some entries that bind do so weakly or less than the wild type.

B1: Hanke10F4 (antibody, human IgG4 S228P, kappa, V domains shown)
VH: QVQLQESGPGLVKPSETLSITCTVSGSSLTSYGVHWVRQPPGKGLEGLGVIWPGGSTNYNSALMSRLTISKDNSKSQVSLKMSSLTAADTAMYYCARVTGTWYFDVWGQGTTVTVSS
VL: DIQMTQSPSSLSASLGDRVTISCSASQGISNYLNWYQQKPDGTVKLLIYYTSTLHSGVPSRFSGSGSGTDFTLTISSLQPEDVATYYCQQYSKLPWTFGGGTKLEIKR
On to B1, for which the binding result is “binds”.
